Here are results for 15 molecules from the supplement of paper PMC4604168 (melanoma cell lines).

Some of the results follow. Many values rest on one well or one pass, so single values are uncertain.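 The apoptosis fraction was the count of cleaved-PARP antibody-stained nuclei relative to all DNA-stained nuclei, imaged in 1,536-well plates. Screening doses were set so most cells survived, and baseline and induced cleaved-PARP levels vary greatly across cell lines.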

This assay concerns MZ2-MEL. Briefly: cleaved PARP positive nuclei fraction relative to DMSO control; melanoma cells; higher = more apoptosis. Particulars: library dose: low library concentration; 72 h.
`CC1(C)CCC(c2ccc(Cl)cc2)=C(CN2CCN(c3ccc(C(=O)NS(=O)(=O)c4ccc(N[C@H](CCN5CCOCC5)CSc5ccccc5)c(S(=O)(=O)C(F)(F)F)c4)cc3)CC2)C1` + Cc1cc([N+](=O)[O-])ccc1NS(=O)(=O)c1cc(Cl)ccc1Cl [FH535] (first compound 0.4 µM, partner dose 1 µM): the “cleaved PARP positive nuclei fraction” value was 139%. The figure for `NC1(c2ccc(-c3nc4ccn5c(=O)[nH]nc5c4cc3-c3ccccc3)cc2)CCC1` + CC(C)(C)c1cnc(CSc2cnc(NC(=O)C3CCNCC3)s2)o1 [SNS-032] (first compound 0.4 µM, partner dose 0.01 µM) is 94.5%; for `CN(c1ncccc1CNc1nc(Nc2ccc3c(c2)CC(=O)N3)ncc1C(F)(F)F)S(C)(=O)=O` + O=C(O)C(=O)Nc1sc2c(c1C(=O)O)CCNC2 [TCS401] (first compound 0.08 µM, partner dose 1.66667 µM) it is 133%; for `NC1(c2ccc(-c3nc4ccn5c(=O)[nH]nc5c4cc3-c3ccccc3)cc2)CCC1` + COc1cc2c(Oc3ccc4[nH]c(C)cc4c3F)ncnc2cc1OCCCN1CCCC1 [cediranib] (first compound 0.4 µM, partner dose 0.4 µM) it is 58.9%. The figure for `CC1(C)CCC(c2ccc(Cl)cc2)=C(CN2CCN(c3ccc(C(=O)NS(=O)(=O)c4ccc(N[C@H](CCN5CCOCC5)CSc5ccccc5)c(S(=O)(=O)C(F)(F)F)c4)cc3)CC2)C1` + C=CCn1c(=O)c2cnc(Nc3ccc(N4CCN(C)CC4)cc3)nc2n1-c1cccc(C(C)(C)O)n1 [MK1775] (first compound 0.4 µM, partner dose 0.02 µM) is 261%; for `NC1(c2ccc(-c3nc4ccn5c(=O)[nH]nc5c4cc3-c3ccccc3)cc2)CCC1` + COc1ccc(-c2ccc3c(N4CCOCC4)nc(N4C[C@@H](C)O[C@@H](C)C4)nc3n2)cc1CO [KU0063794] (first compound 0.4 µM, partner dose 0.02 µM) it is 95.5%; for `CS(=O)(=O)c1ccc(C(=O)Nc2ccc(Cl)c(-c3ccccn3)c2)c(Cl)c1` [vismodegib] + COC(=O)c1sccc1S(=O)(=O)Nc1ccc(Nc2ccccc2)cc1OC [GSK0660] (first compound 1 µM, partner dose 1 µM) it is 168%. The figure for `NC(=O)c1ccc(N(C(N)=O)c2c(F)cccc2F)nc1-c1ccc(F)cc1F` + O=C(CCCCCCC(=O)Nc1ccccc1)NO [vorinostat] (first compound 0.4 µM, partner dose 0.08 µM) is 115%; for `Cn1sc(=O)n(Cc2ccccc2)c1=O` + O=c1cc(-c2cccc3c2Sc2ccccc2S3)oc(N2CCOCC2)c1 [KU55933] (first compound 0.4 µM, partner dose 1 µM) it is 102%.

In the case of `CCCCCCCCc1ccc(CCC(N)(CO)CO)cc1` [fingolimod] + COc1cc2ncnc(Nc3ccc(Oc4ccccc4)cc3)c2cc1OC [SrcI1] (first compound 2 µM, partner dose 2 µM), the “cleaved PARP positive nuclei fraction” value was found to be 104%. With `NC1(c2ccc(-c3nc4ccn5c(=O)[nH]nc5c4cc3-c3ccccc3)cc2)CCC1` + Cc1ccc(NC(=O)c2cccc(N(C)C)c2)cc1NC(=O)c1ccc(O)cc1 [ZM336372] (first compound 0.4 µM, partner dose 2 µM) the figure was 138%; with `COc1ccc(C2=N[C@@H](c3ccc(Cl)cc3)[C@@H](c3ccc(Cl)cc3)N2C(=O)N2CCNC(=O)C2)c(OC(C)C)c1` [Nutlin-3] + C[C@@H]1CCN(C(=O)CC#N)C[C@@H]1N(C)c1ncnc2[nH]ccc12 [CP690550] (first compound 0.1 µM, partner dose 1 µM), 63.2%. The figure for `CS(=O)(=O)c1ccc(C(=O)Nc2ccc(Cl)c(-c3ccccn3)c2)c(Cl)c1` [vismodegib] + CC(C)(C)c1cnc(CSc2cnc(NC(=O)C3CCNCC3)s2)o1 [SNS-032] (first compound 1 µM, partner dose 0.01 µM) is 56.2%; for `NC1(c2ccc(-c3nc4ccn5c(=O)[nH]nc5c4cc3-c3ccccc3)cc2)CCC1` + Cn1cc(/C=C2\C(=O)Nc3cccnc32)c2ccccc21 [GW441756] (first compound 0.4 µM, partner dose 0.4 µM) it is 68%; for `Cn1cnc2c(F)c(Nc3ccc(Br)cc3Cl)c(C(=O)NOCCO)cc21` [selumetinib] + O=C(Nc1cccc(Cl)c1)Nc1ncc(CCNc2ncnc3ccsc23)s1 [SNS314] (first compound 0.015 µM, partner dose 0.0008 µM) it is 196%.
